# Cleaved PARP in drug-treated melanoma cells

Values as published with doi:10.1371/journal.pone.0140310, rounded.

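The test systems are human melanoma cell lines, treated with two drugs together for 72 h and then stained and imaged. Values are the share of nuclei positive for cleaved PARP as a percentage of the same share in the DMSO control: 100 is the control level, higher means more apoptosis. Concentrations were fixed for each drug; these are the higher of two levels. No replicate spread is given; individual values may be noisy. The marker varies much from line to line, for technical or biological reasons.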 An unselected part of the screen is shown. An entry leaves out what has no value listed here. A dash means that no value is listed here.

Every entry is a combination with tipifarnib at 0.05 µM: Cn1cncc1[C@@](N)(c1ccc(Cl)cc1)c1ccc2c(c1)c(-c1cccc(Cl)c1)cc(=O)n2C

Second drug | IPC-298 | RVH-421 | WM1716 | COLO 800 | MeWo | A375 | SK-MEL-2 | A101D | SK-MEL-5 | RPMI-7951
CCCCCCCCc1ccc(CCC(N)(CO)CO)cc1 at 10 µM | 205 | 104 | 13100 | 35.6 | 2670 | - | 2200 | 2520 | 844 | 1530
COc1cc(Nc2ncc(F)c(Nc3ccc4c(n3)NC(=O)C(C)(C)O4)n2)cc(OC)c1OC at 2 µM | 86.4 | 222 | 170 | 462 | 122 | - | 64.9 | 200 | 236 | 187
Clc1ccc(Nc2nnc(Cc3ccncc3)c3ccccc23)cc1 at 10 µM | 57.6 | 360 | 158 | 307 | 191 | - | 113 | 457 | 99.2 | 129
CS(=O)(=O)c1ccc(C(=O)Nc2ccc(Cl)c(-c3ccccn3)c2)c(Cl)c1 at 5 µM | 66.9 | 45.7 | 71.1 | 42.4 | 69.6 | - | 175 | 62.3 | 174 | 149
O=C(O)c1ccc(-c2c[nH]c3ncc(-c4ccccc4)cc23)cc1C1CCCC1 at 0.8 µM | 182 | 87.4 | 75.0 | 226 | 107 | - | 146 | 70.4 | 264 | 130
CN1CCN(c2ccc3nc(-c4c(N)c5c(F)cccc5[nH]c4=O)[nH]c3c2)CC1 at 0.5 µM | 97.8 | 261 | 31.5 | 90.8 | 396 | - | 390 | 147 | 249 | 166
c1cc(-c2cnn3cc(-c4ccc(OCCN5CCCCC5)cc4)cnc23)ccn1 at 2 µM | 70.7 | 113 | 116 | 127 | 46.3 | 161 | 176 | 150 | 211 | 95.5
CCCCCCCCCCCC1=C(O)C(=O)C=C(O)C1=O at 6 µM | 26.7 | 252 | 88.5 | 39.3 | 57.5 | 40.7 | 239 | 185 | 259 | 84.6
O=C(Nc1cccc(Cl)c1)Nc1ncc(CCNc2ncnc3ccsc23)s1 at 0.004 µM | 193 | 345 | 56.8 | 421 | 77.2 | - | 224 | 370 | 149 | 214
NC1(c2ccc(-c3nc4ccn5c(=O)[nH]nc5c4cc3-c3ccccc3)cc2)CCC1 at 2 µM | 82.9 | 155 | 108 | 190 | 71.3 | - | 145 | 384 | 137 | 36.9
Cc1cc(Nc2cc(N3CCN(C)CC3)nc(Sc3ccc(NC(=O)C4CC4)cc3)n2)n[nH]1 at 0.03 µM | 41.2 | 85.3 | 52.3 | 196 | 97.8 | - | 204 | 195 | 163 | 188
O=C(O)c1ccc2c(c1)nc(Nc1cccc(Cl)c1)c1ccncc12 at 2 µM | 99.2 | 139 | 236 | 120 | 180 | - | 369 | 209 | 258 | 81.1
CCN(CC)CCNC(=O)c1c(C)[nH]c(/C=C2\C(=O)Nc3ccc(F)cc32)c1C at 2 µM | 140 | 91.5 | 89.1 | 104 | 193 | - | 142 | 267 | 430 | 62.8
Cn1cnc2c(F)c(Nc3ccc(Br)cc3Cl)c(C(=O)NOCCO)cc21 at 0.075 µM | 151 | 50.4 | 153 | 54.0 | 143 | - | 286 | 71.0 | 43.8 | 85.6
Cn1cc(/C=C2\C(=O)Nc3cccnc32)c2ccccc21 at 2 µM | 47.0 | 214 | 48.2 | 57.9 | 108 | 216 | 45.4 | 30.3 | 795 | 83.9
C[C@@H](Oc1cc(-c2cnn(C3CCNCC3)c2)cnc1N)c1c(Cl)ccc(F)c1Cl at 1 µM | 82.1 | 38.6 | 90.2 | 229 | 128 | - | 225 | 136 | 151 | 614
O=S(=O)(c1ccccc1)N(CC(F)(F)F)c1ccc(C(O)(C(F)(F)F)C(F)(F)F)cc1 at 7 µM | 116 | 208 | 30.8 | 172 | 80.5 | 69.1 | 112 | 68.1 | 217 | 80.6
CC[C@]1(O)C[C@H]2CN(CCc3c([nH]c4ccccc34)[C@@](C(=O)OC)(c3cc4c(cc3OC)N(C=O)[C@H]3[C@@](O)(C(=O)OC)[C@H](OC(C)=O)[C@]5(CC)C=CCN6CC[C@]43[C@@H]65)C2)C1 at 0.0005 µM | 45.8 | 149 | 470 | 160 | 552 | - | 275 | 436 | 1440 | 167
C[C@]1(c2nc3c(C(N)=O)cccc3[nH]2)CCCN1 at 7 µM | 112 | 234 | 112 | 421 | 120 | - | 338 | 83.2 | 302 | 117
C/C(O)=C(\C#N)C(=O)Nc1cc(Br)ccc1Br at 10 µM | 50.6 | 70.6 | 27.6 | 85.2 | 62.2 | 74.8 | 167 | 130 | 319 | 69.9
Cc1ccc(Nc2nccc(N(C)c3ccc4c(C)n(C)nc4c3)n2)cc1S(N)(=O)=O at 2 µM | 85.5 | 39.0 | 131 | 69.0 | 168 | - | 113 | 95.5 | 258 | 49.1
COCC[n+]1c2c(n(Cc3cnccn3)c1C)C(=O)c1ccccc1C2=O at 0.002 µM | 241 | 176 | 97.7 | 134 | 210 | - | 444 | 151 | 245 | 147
C[C@@H](N)c1ccc(C(=O)Nc2ccnc3[nH]ccc23)cc1 at 2 µM | 36.0 | 70.0 | 223 | 173 | 236 | - | 350 | 125 | 147 | 54.5
C[As](C)SC[C@H](NC(=O)CC[C@H](N)C(=O)O)C(=O)NCC(=O)O at 2 µM | 94.0 | 52.8 | 89.7 | 172 | 207 | - | 169 | 123 | 366 | 80.4
C#Cc1cccc(Nc2ncnc3cc(OCCOC)c(OCCOC)cc23)c1 at 4 µM | 165 | 154 | 36.9 | 173 | 67.6 | - | 104 | 250 | 861 | 374
COc1cc(N2CCC(N3CCN(C)CC3)CC2)ccc1Nc1ncc(Cl)c(Nc2ccccc2S(=O)(=O)C(C)C)n1 at 0.4 µM | 82.5 | 122 | 43.1 | 54.0 | 41.4 | 109 | 226 | 123 | 279 | 144

Some entries from above, unchanged:

{"second drug": "CCN(CC)CCNC(=O)c1c(C)[nH]c(/C=C2\\C(=O)Nc3ccc(F)cc32)c1C at 2 µM", "IPC-298": 140, "RVH-421": 91.5, "WM1716": 89.1, "COLO 800": 104, "MeWo": 193, "SK-MEL-2": 142, "A101D": 267, "SK-MEL-5": 430, "RPMI-7951": 62.8}
{"second drug": "CCCCCCCCc1ccc(CCC(N)(CO)CO)cc1 at 10 µM", "IPC-298": 205, "RVH-421": 104, "WM1716": 13100, "COLO 800": 35.6, "MeWo": 2670, "SK-MEL-2": 2200, "A101D": 2520, "SK-MEL-5": 844, "RPMI-7951": 1530}
{"second drug": "CN1CCN(c2ccc3nc(-c4c(N)c5c(F)cccc5[nH]c4=O)[nH]c3c2)CC1 at 0.5 µM", "IPC-298": 97.8, "RVH-421": 261, "WM1716": 31.5, "COLO 800": 90.8, "MeWo": 396, "SK-MEL-2": 390, "A101D": 147, "SK-MEL-5": 249, "RPMI-7951": 166}